Measurements reported in PMC10766628.

Target: MINK1 as used in the co-IP validation of Fig. 4E
Experiment: co-IP; HEK293T cells; lysis in 10 mM Tris-HCl, 150 mM NaCl, 1% NP-40, 1% Triton X-100, 1 mM DTT, pH 7.5; anti-FLAG M2 or anti-HA magnetic beads overnight at 4 C; washes up to 500 mM NaCl; western blots

B1: CRYAB (protein, UniProt P02511 1-175)
chain: MDIAIHHPWIRRPFFPFHSPSRLFDQFFGEHLLESDLFPTSTSLSPFYLRPPSFLRAPSWFDTGLSEMRLEKDRFSVNLDVKHFSPEELKVKVLGDVIEVHGKHEERQDEHGFISREFHRKYRIPADVDPLTITSSLSSDGVLTVNGPRKQVSGPERTIPITREEKPAVTAAPKK
binding: binds weakly

Results are given in words; binding and its absence hold for the method and conditions named. Binding seen in cells or lysates may run through a third protein. Binding can be weak; no strength is given.
